In patent US10226045B2, “Azoline compounds” (priority 2014, dated 2019):
Some of these results come from one statement about several compounds together.

What was measured:
Type in all cases: in vivo
[1] = test system: Diamond Back Moth (Plutella xylostella); test: Diamond back moth, cabbage leaf dip test; conditions: 300 ppm; 3rd instar larvae on dipped cabbage leaves; 72 hours after treatment; in comparison with untreated controls
[2] = test system: Green Peach Aphid (Myzus persicae); test: Green peach aphid, systemic test on artificial diet in microtiter plates; conditions: 2500 ppm; adult aphids on treated artificial diet; 3 days; in comparison with untreated controls
Method in brief: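 Adult aphids (5-8 per well) fed through a membrane on artificial diet containing compound formulated in 75% water/25% DMSO, with two replications per concentration. Incubation lasted 3 days at about 23±1° C and 50±5% relative humidity. Mortality and fecundity were then assessed visually.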

[3] = test system: Vetch Aphid (Megoura viciae); test: Vetch aphid, broad bean leaf disk test; conditions: 2500 ppm; adult aphids on sprayed broad bean leaf disks; 5 days; in comparison with untreated controls
Method in brief: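 Broad bean leaf disks sprayed with compounds in 25% DMSO/water at various concentrations, two replicates, then air-dried and infested with 5-8 adult Megoura viciae (contact/systemic exposure). After 5 days at about 23±1 °C and 50±5% RH, mortality and fecundity scored visually.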

[4] = test system: Tobacco Budworm (Heliothis virescens); test: Tobacco budworm, insect diet microtiter plate test; conditions: 2500 ppm; eggs on sprayed insect diet; egg and larval mortality after 5 days; in comparison with untreated controls
[5] = test system: Boll Weevil (Anthonomus grandis); test: Boll weevil, insect diet microtiter plate test; conditions: 2500 ppm; eggs on sprayed insect diet; egg and larval mortality after 5 days; in comparison with untreated controls
Method in brief: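 Compounds in 75% water/25% DMSO sprayed at several concentrations (5 μl, two replicates) onto insect diet in 96-well microtiter plates holding 5-10 A. grandis eggs. After 5 days at about 25±1° C and 75±5% relative humidity, egg and larval mortality scored visually.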

[6] = test system: Mediterranean Fruitfly (Ceratitis capitata); test: Mediterranean fruitfly, insect diet microtiter plate test; conditions: 2500 ppm; eggs on sprayed insect diet; egg and larval mortality after 5 days; in comparison with untreated controls
[7] = test system: Orchid Thrips (dichromothrips corbetti); test: Orchid thrips, floral-immersion technique; conditions: 300 ppm; adult thrips on dipped orchid petals; 72 hours after treatment; in comparison with untreated controls
[8] = test system: Rice Green Leafhopper (Nephotettix virescens); test: Rice green leafhopper, sprayed rice seedlings; conditions: 300 ppm; adults on sprayed rice seedlings; after 72 hours; in comparison with untreated controls
[9] = test system: Red Spider Mite (Tetranychus kanzawai); test: Red spider mite, sprayed cowpea beans; conditions: 300 ppm; mites on sprayed cowpea beans; 72 hours after treatment; in comparison with untreated controls
[10] = test system: Green Soldier Stink Bug (Nezara viridula); test: Green soldier stink bug, sprayed soybean pods in Petri dishes; conditions: 300 ppm; late 3rd instar on soybean pods; after 5 days; in comparison with untreated controls
[11] = test system: Neotropical Brown Stink Bug (Euschistus heros); test: Neotropical brown stink bug, sprayed soybean pods in cups; conditions: 100 ppm; adults on soybean pods; after 5 days; in comparison with untreated controls
Description: B.12 Neotropical Brown Stink Bug (Euschistus heros)
(§1) The active compound was dissolved at the desired concentration in a mixture of 1:1 (vol:vol) distilled water: acetone. Surfactant (Kinetic HV) was added at a rate of 0.01% (vol/vol). The test solution was prepared at the day of use.
Soybean pods were placed in microwavable plastic cups and inoculated with ten adult stage E. heros. Using a hand atomizer, approximately 1 ml solution is sprayed into each cup, insects and food present. A water source was provided (cotton wick with water). Each treatment was replicated 2-fold. Assay arenas were kept at about 25° C. Percent mortality was recorded after 5 days.

[12] = test system: Brown Marmorated Stink Bug (Halyomorpha halys); test: Brown marmorated stink bug, sprayed peanuts and soybean seeds in cups; conditions: 100 ppm; adults on peanuts and soybean seeds; after 5 days; in comparison with untreated controls
Description: B.13 Brown Marmorated Stink Bug (Halyomorpha halys)
as §1
Row peanuts and soybean seeds were placed into microwavable plastic cups and inoculated with five adult stage H. halys. Using a hand atomizer, approximately 1 ml solution is sprayed into each cup, insects and food present. A water source was provided (cotton wick with water). Each treatment is replicated 4-fold. Assay arenas are kept at about 25° C. Percent mortality was recorded after 5 days.

[13] = test system: Southern Armyworm (Spodoptera eridania); test: Southern armyworm, sprayed lima bean plants; conditions: 1 ppm; larvae on sprayed lima bean plants; 4 days after treatment; in comparison with untreated controls
Description: B.10 Southern Armyworm (Spodoptera eridania)
The active compounds were formulated in cyclohexanone as a 10,000 ppm solution supplied in tubes. The tubes were inserted into an automated electrostatic sprayer equipped with an atomizing nozzle and they served as stock solutions for which lower dilutions were made in 50% acetone:50% water (v/v). A nonionic surfactant (Kinetic®) was included in the solution at a volume of 0.01% (v/v).
Lima bean plants (variety Sieva) were grown 2 plants to a pot and selected for treatment at the 1st true leaf stage. Test solutions were sprayed onto the foliage by an automated electrostatic plant sprayer equipped with an atomizing spray nozzle. The plants were dried in the sprayer fume hood and then removed from the sprayer. Each pot was placed into perforated plastic bags with a zip closure. About 10 to 11 armyworm larvae were placed into the bag and the bags zipped closed. Test plants were maintained in a growth room at about 25° C. and about 20-40% relative humidity for 4 days, avoiding direct exposure to fluorescent light (24 hour photoperiod) to prevent trapping of heat inside the bags. Mortality and reduced feeding were assessed 4 days after treatment, compared to untreated control plants.

Measured: mortality

O=C(CNC(=O)c1ccc(C2=NOC(c3cc(Cl)c(F)c(Cl)c3)(C(F)(F)F)C2)c2c1CCC2)NCC(F)(F)F (centres unmarked) [Compound 1-4]
not listed: [13]
at least 75%: all other assays above

C=CCNC(=O)c1ccc(C2=NOC(c3cc(Cl)c(F)c(Cl)c3)(C(F)(F)F)C2)c2c1CCC2 (centres unmarked) [Compound 1-11]
not listed: [13]
at least 75%: all other assays above

N#CC1(NC(=O)c2ccc(C3=NOC(c4cc(Cl)c(F)c(Cl)c4)(C(F)(F)F)C3)c3c2CCC3)CC1 (centres unmarked) [Compound 1-13]
not listed: [6] | [12] | [13]
at least 75%: all other assays above

O=C(NNc1ncccn1)c1ccc(C2=NOC(c3cc(Cl)c(F)c(Cl)c3)(C(F)(F)F)C2)c2c1CCC2 (centres unmarked) [Compound 1-16]
not listed: [9] | [11]
at least 75%: all other assays above

N#CCNC(=O)c1ccc(C2=NOC(c3cc(Cl)c(F)c(Cl)c3)(C(F)(F)F)C2)c2c1CCC2 (centres unmarked) [Compound 1-17]
not listed: [9] | [12]
at least 75%: all other assays above

CC1(C)SCC1NC(=O)c1ccc(C2=NOC(c3cc(Cl)c(F)c(Cl)c3)(C(F)(F)F)C2)c2c1CCC2 (centres unmarked) [Compound 1-20]
not listed: [13]
at least 75%: all other assays above

O=C(NCC(F)(F)F)c1ccc(C2=NOC(c3cc(Cl)cc(Cl)c3)(C(F)(F)F)C2)c2c1CCC2 (centres unmarked) [Compound 1-29]
not listed: [11] | [12]
at least 75%: all other assays above

O=C(CNC(=O)c1ccc(C2=NOC(c3cc(Cl)c(F)c(Cl)c3)(C(F)(F)F)C2)c2c1CCC2)NCC(F)F (centres unmarked) [Compound 1-49]
not listed: [11] | [12]
at least 75%: all other assays above

C#CCNC(=O)CNC(=O)c1ccc(C2=NOC(c3cc(Cl)c(F)c(Cl)c3)(C(F)(F)F)C2)c2c1CCC2 (centres unmarked) [Compound 1-51]
not listed: [11] | [12]
at least 75%: all other assays above

O=C(NNc1ncccn1)c1ccc(C2=NCC(c3cc(Cl)cc(Cl)c3)(C(F)(F)F)C2)c2c1CCC2 (centres unmarked) [Compound 2-12]
not listed: [11] | [12]
at least 75%: all other assays above

O=C(NCc1ccccn1)c1ccc(C2=NCC(c3cc(Cl)cc(Cl)c3)(C(F)(F)F)C2)c2c1CCC2 (centres unmarked) [Compound 2-13]
not listed: [11] | [12]
at least 75%: all other assays above

O=C(CNC(=O)c1ccc(C2=NCC(c3cc(Cl)cc(Cl)c3)(C(F)(F)F)C2)c2c1CCC2)NCC(F)(F)F (centres unmarked) [Compound 2-14]
not listed: [11] | [12]
at least 75%: all other assays above
